US10047078B2, “Aminothiazole compounds” (National Health Research Institutes, priority 2016, dated 2018)
Some of these results come from one statement about several compounds together.

Legend:
[1] = molecular target: multiple protein kinases; test: Kinase inhibition, summary statement; assay type: binding; settings: read-out: half maximal inhibitory concentrations or IC50 values
[2] = tested on: xenografts FLT3-ITD-D835Y model; test: Xenograft efficacy, FLT3-ITD-D835Y model; assay type: in vivo; settings: FLT3-ITD-D835Y xenograft in nude mice, PO 25 mg/kg
Description: Male nude mice (Nu-Fox1^nu) of 8 weeks old were purchased from BioLASCO (Taipei, Taiwan, R.O.C.). Human colorectal Colo205, pancreatic Mia-PaCa 2 tumor cells or MOLM-13, 32D-ITD/D835Y leukemia cells were inoculated subcutaneously at 1×10^6 cells each in the nude mice. All human cancer cells were detected as free of Mycoplasma spp before they were injected into animals. The tumor cells grow as xenograft tumors and the tumor size reached approximately 200-250 mm^3 in the nude mice ready for dose treatments. Test compounds were dissolved in 20% 2-hydroxypropy-β-cyclodextrin individually for oral gavage administrations to the nude mice. The tumor-bearing mice were treated with test compounds at various doses, 5 times a week for 2 weeks. Tumor sizes were measured by an electronic caliper and calculated with the formula: tumor size=length×width^2/2. Tumor size and animal body weight were measured twice a week before and after the tumor cell inoculation throughout the observation period. Uses of animals and experimental procedures thereof were approved by the Institutional Animal Care and Use Committee (IACUC) of the National Health Research Institutes.

| SMILES | IC50 [1] [nM] | Day 12 tumor regression [2] [%] |
| --- | --- | --- |
| CCc1cc(NC(=O)Nc2ccc(-c3cnc(Nc4cc(OCCN5CCOCC5)ncn4)s3)cc2)no1 [Compound 3, 1-(5-Ethylisoxazol-3-yl)-3-(4-(2-((6-(2-morpholinoethoxy)pyrimidin-4-yl)amino)thiazol-5-yl)phenyl)urea] | < 100 |  |
| CCc1cc(NC(=O)Nc2ccc(-c3cnc(Nc4cc(N5CCN(CC)CC5)ncn4)s3)cc2)no1 [Compound 2, 1-(5-Ethylisoxazol-3-yl)-3-(4-(2-((6-(4-ethylpiperazin-1-yl)pyrimidin-4-yl)amino)thiazol-5-yl)phenyl)urea] | < 100 | > 20 |
| CCc1cc(NC(=O)Nc2ccc(-c3cnc(Nc4cc(N5CCN(CCF)CC5)ncn4)s3)cc2)no1 [Compound 5, 1-(5-Ethylisoxazol-3-yl)-3-(4-(2-((6-(4-(2-fluoroethyl)piperazin-1-yl)pyrimidin-4-yl)amino)thiazol-5-yl)phenyl)urea] |  | > 20 |
| CCc1cc(NC(=O)Nc2ccc(-c3cnc(Nc4cc(N5CCN(CCO)CC5)nc(C)n4)s3)cc2)no1 [Compound 1, 1-(5-Ethylisoxazol-3-yl)-3-(4-(2-((6-(4-(2-hydroxyethyl)piperazin-1-yl)-2-methylpyrimidin-4-yl)amino)thiazol-5-yl)phenyl)urea] | < 100 |  |
